Laboratory results: PubChem BioAssay AID686937 (Drosophila RNAi Screening Center, 2013)
The deposit covers about 23,000 reagents; below is a random part of those with a known target gene and a result. 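Reduced-secretion tags in replicate 1 do not always agree with the z-scores; no criterion for assigning the tags was given.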 Names joined by + are all predicted targets of the reagent. Not stated in the record: the amount of reagent.

Aim: 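Genes in the fly needed for secretion of protein constitutively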 (primary screen)
System: Drosophila S2 cells expressing secreted horseradish peroxidase
Knock-down reagent: long dsRNA against Drosophila genes
Duration: about 5.5 days (5 days dsRNA, then 12 h reporter induction)
Conditions: reporter expression induced after 5 days of dsRNA, read 12 h later; inducer not stated
Read-out: 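Chemiluminescent measurement of peroxidase in the medium 12 h after reporter induction, following 5 days of dsRNA, given as a z-score per plate; higher means more secretion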
Reading the numbers: z-score: higher = more reporter secreted into medium

| gene | dsRNA | z-score, replicate 1 | z-score, replicate 2 | phenotype, replicate 1 |
| --- | --- | --- | --- | --- |
| Prosbeta5 | DRSC07517 | -4.54 | -4.65 | reduced secretion |
| Uck | DRSC13661 | 0.28 | 0.2 | – |
| Uck | DRSC16028 | -0.57 | -0.73 | – |
| CG11159 | DRSC06050 | -0.78 | -0.42 | – |
| l(2)37Cb | DRSC02095 | -1.21 | -1.35 | – |
| CG30323 | DRSC07656 | 0.22 | 0.13 | – |
| osy | DRSC14903 | -0.29 | -0.33 | – |
| osy | DRSC15979 | -3.5 | -0.09 | – |
| osy | DRSC15981 | -0.16 | -0.03 | – |
| CG6421 | DRSC07420 | 0.61 | 0.83 | – |
| eIF3l | DRSC10530 | 0.57 | 0.36 | – |
| CG4741 | DRSC04228 | 0.14 | 0.44 | – |
| CG4741 | DRSC04485 | 0.19 | -0.01 | – |
| CG15545 | DRSC15083 | 0.5 | 0.55 | – |
| Lapsyn | DRSC04249 | 0 | 0.11 | – |
| CG15701 | DRSC06572 | 0.33 | 0.3 | – |
| CG31272 | DRSC16058 | 0.3 | 0.72 | – |
| Mst84Dd | DRSC12600 | 0.22 | 0.61 | – |
| Catsup | DRSC03288 | -1.02 | -1.05 | – |
| Ir7f | DRSC18012 | 0.24 | 0.29 | – |
| CG43219 | DRSC11472 | 0.24 | -0.39 | – |
| phtm | DRSC20237 | -1.21 | -0.57 | – |
| CG7953 | DRSC01902 | 0.29 | 0.02 | – |
| Acp65Aa | DRSC09663 | 0.2 | 0.34 | – |
| CG8237 | DRSC07119 | 0.51 | 0.46 | – |
| Nha2 | DRSC14689 | 0.24 | 0.39 | – |
| Nha2 | DRSC15619 | -2.12 | -1.68 | reduced secretion |
| Nha2 | DRSC15623 | 0.21 | 0.43 | – |
| CtIP | DRSC11785 | 0.4 | 0.38 | – |
| CenG1A | DRSC02538 | -0.29 | -0.27 | – |
| CenG1A | DRSC03505 | 0.04 | 0.18 | – |
| CenG1A | DRSC03506 | 0.31 | 0.16 | – |
| CG43111 | DRSC05796 | 0.1 | 0.42 | – |
| Cyt-b5-r | DRSC03308 | 0.76 | 0.64 | – |
| CG4935 | DRSC01924 | -0.05 | 0.13 | – |
| Sec13 | DRSC14144 | -1.35 | -0.6 | – |
| ATPCL | DRSC05913 | 0.27 | 0.24 | – |
| mod(mdg4) + pre-mod(mdg4)-U | DRSC13476 | 0.08 | 0.28 | – |
| CG12516 | DRSC14524 | 0.36 | 0.12 | – |
| Ugt35E1 | DRSC15193 | 0.45 | 0.35 | – |
| Mst33A | DRSC03371 | 0.13 | 0.12 | – |
| Est-Q | DRSC11835 | 0.26 | 0.34 | – |
| CG30050 | DRSC05342 | -0.75 | 0.21 | – |
| Stim | DRSC20158 | 0.45 | 0.38 | – |
| Mpcp1 | DRSC07337 | 0.01 | 0.19 | – |
| CG43331 | DRSC11671 | -0.14 | 0.31 | – |
| dpr9 | DRSC14534 | 0.31 | 0.32 | – |
| dpr9 | DRSC14985 | 0.42 | 0.76 | – |
| dpr9 | DRSC14986 | 0.75 | 0.86 | – |
| laza | DRSC11661 | 0.1 | 0 | – |
| armi | DRSC08193 | 0.28 | 0.25 | – |
| CG14556 | DRSC14899 | 0.45 | 0.27 | – |
| Tep1 | DRSC03450 | -0.4 | 0.12 | – |
| CG3309 | DRSC18301 | 0.49 | 0.24 | – |
| Tsp42Ee | DRSC05947 | 0.48 | 0.46 | – |
| lncRNA:CR32368 | DRSC08899 | -0.48 | -0.11 | – |
